Data as given in publication PMC10234869.
Results are given in words; binding and its absence hold for the method and conditions named. Binding seen in cells or lysates may run through a third protein. Binding calls can cover weak binding; strength is not graded here. Sequences can lack the tags named with a protein.

Protein sequences, listed by entry. Tags and fused reporters are not part of them. Lines headed by an entry give the natural chain unless they say otherwise; changes in a name come on top.
UniProt Q8CF31: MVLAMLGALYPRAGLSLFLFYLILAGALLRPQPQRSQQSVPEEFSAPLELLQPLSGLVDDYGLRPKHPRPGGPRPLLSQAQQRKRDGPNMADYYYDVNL

Tests used:
[1] = biological target: Frey1-3xFLAG TMD mutant (TMD mut) (murine) (UniProt Q8CF31); assay: co-IP; anti-FLAG M2 and Protein G agarose from 0.5% CHAPSO lysates (1 mg in 500 µl, overnight, 4 °C) of transiently transfected HEK293T cells; four washes with CHAPSO buffer; eluates blotted; co-precipitated SPPL2c divided by the precipitated Frey1 or PLN variant and normalised to wild-type Frey1
[2] = biological target: Frey1-3xFLAG TMD mutant (TMD mut) (murine) (UniProt Q8CF31); assay: co-IP; competitive co-immunoprecipitation pulling on Frey1-3xFLAG or its TMD mutant from transiently transfected HEK cells, with or without co-expressed HA-HO-1 as model substrate; SPPL2c blotted

binding [1]: binds
binding [2]: binds
B1: Signal Peptide Peptidase-like 2c, C-terminally myc-tagged (SPPL2c-myc) (enzyme, UniProt A2A6C4 29-690)
chain: EYGLVRVVSKNWSKDYCVLYSSDYVNLPRDLHHAPLLSLHDGTKTPWCPDEDSFHQAQDSSPRQRPLHQTTTMVTRGNCSFYAKGWLAQDQGAQGLLIVSRARNQQCSDTISKPQDPSKPWPALTIPVAVLRYTDMLDIVSHTYGDTDVRVAMFAPLEPVTDYNMAIIFILAVGTVAAGGYWAGLMEANKLQRRQAQRGGGLGGHNQQQTVAAERSQRAWEDDDFEDAPMDFTPAMTGAVVTMSCSIMILLYFFYDCFVYVMIGIFSLGASTGLYSCLAPILCHLPLWRYQWVLPGQRVSVTWPLLLLAGLCAMVTVLWVIHRNEDHWAWLLQDTLGVAYCLFVLRRVRLPTFKNCTLFLLALLAFDVFFVFITPLFTKTGESIMVEVASGPADSSSHERLPMVLKVPRLSFSALTLCNQPFSILGFGDIVVPGFLVAYCHRFDMQVQSRQVYYMACTVAYAVGLLVTFVAMILMQMGQPALLYLVSSTLLTSLAVATCRQEFTLFWTGQGRAKIPAEPVAQPCIASAVGSKMKLEDAKDSRTTNRFEQAVDGESGDLESSTGDDMAEMVTLSEDEATSPEGHSESSEGWSDTNLDPNELPSGSPMALEAMLIPLIQPIPHPSELGHIRTQSRVHDSSLPWMGLHKRKGLKVKKSMSAQAPL
